Test results: PubChem BioAssay AID504444 (National Center for Advancing Translational Sciences (NCATS), 2011)
Out of some 360,000 compounds screened, about 7,500 (2.1%) were called active. The shares of active, inactive and inconclusive entries below differ from those in the screen. Calls come from the whole dose curve; as a rule, active = well fitted inhibition curve with a large enough effect; inconclusive = small, poorly fitted or top-dose-only effect, or effect the other way; inactive = flat fitted curve, though single readings scatter. Where the call is inconclusive, the potency comes from a doubtful curve fit.

experiment: Nrf2 qHTS screen for inhibitors; details: A549 ARE-Fluc reporter, luciferase luminescence, 18-24 h; series mostly up to 46 µM; note: nearly all actives have a fitted effect of over 60% in size
How it was run: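 Two sequential reads on A549 ARE_Fluc cells exposed to compound for 18-24 h: a CellTiter-Fluor fluorescence read for viability, then a luciferase luminescence read for Nrf2/ARE activity.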
Potency is the fitted concentration of half-maximal effect.

SMILES | Potency
CC1C(=O)Nc2ccccc2N1C(=O)c1ccc(Cl)c(Cl)c1 (centres undefined) | inconclusive: 20.6 µM [falling, partial curve, poor fit]
COc1ccc(C(=S)NC2CCCCC2)cc1 | inconclusive: 5.17 µM [activator, full curve, poor fit]
N=C1/C(=C/c2ccc(OCc3ccccc3F)cc2)C(=O)N=C2SC(CC(=O)N3CCOCC3)=NN12 | inactive
Cc1ccc(C(=O)Nc2ccccc2C(=O)N2CC3(C)CC2CC(C)(C)C3)cc1 (centres undefined) | inactive
CC(C)n1c(SCC(=O)N2c3ccccc3Sc3ccccc32)nc2c1c(=O)n(C)c(=O)n2C | inconclusive: 9.2 µM [falling, partial curve, poor fit]
CCOC(=O)c1cccc(NC(=O)CCNS(=O)(=O)c2cccc3nonc23)c1 | inconclusive: 18.4 µM [falling, partial curve]
O=C(CSc1nc2c(oc3ccccc32)c(=O)[nH]1)Nc1cccc(Cl)c1 | inconclusive: 0.58 µM [activator, full curve]
CC1=C(c2ccc(Cl)cc2)S(=O)(=O)NC1=NCc1ccc(C)cc1 | inconclusive: 7.31 µM [falling, partial curve]
CC12CN3CC(C)(CN(C1)C3c1ccc(OCc3ccccc3)cc1)C2=O (centres undefined) | inactive
Cc1ccc(N=Nc2c(O)n(CN3CCOCC3)c3ccccc23)cc1 | inconclusive: 1.16 µM [activator, full curve, poor fit]
Cn1c(C(=O)N2CCC(C(=O)NCCc3ccc(S(N)(=O)=O)cc3)CC2)cc2sccc21 | inactive
CNc1nc2c(c(=O)n(C)c(=O)n2C)n1CCCc1ccccc1 | inconclusive: 5.17 µM [falling, partial curve, poor fit]
O=C(N/N=C/c1ccc(Cl)c([N+](=O)[O-])c1)c1cc(-c2ccc3c4c(cccc24)CC3)n[nH]1 | inconclusive: 29.1 µM [falling, single point]
Cc1ccc(OCCn2c(SCCO)nc3c(N)ncnc32)cc1 | inconclusive: 29.1 µM [falling, single point]
CC(C)NC(C(=O)Nc1cc(Cl)cc(Cl)c1)c1ccccc1 (centres undefined) | inactive
O=C(C[C@H]1C[C@H](C(=O)N2CCCCC2)[C@@]2(CCc3ccccc3)c3[nH]c4ccc(Cl)cc4c3CCN2C1=O)NCc1ccco1 | inconclusive: 16.4 µM [falling, single point]
CCCn1c(N)c(C(=O)CSc2ncc(C(F)(F)F)cc2Cl)c(=O)[nH]c1=O | inconclusive: 1.3 µM [falling, partial curve, poor fit]
CCc1ccc(NC(=O)c2oc3c(c2C)-c2[nH]ncc2CC3)cc1 | inconclusive: 13 µM [falling, partial curve]
CCc1ccc(NC(=O)c2ccc3c(c2)c(C)c(C)n3Cc2ccccc2)cc1 | inconclusive: 9.2 µM [activator, partial curve]
CC(Oc1ccc(F)cc1)C(=O)Nc1ccc(S(=O)(=O)NC2=NCCCCC2)cc1 (centres undefined) | inconclusive: 0.164 µM [falling, full curve, poor fit]

Taken from above:
Entry for `Cc1ccc(OCCn2c(SCCO)nc3c(N)ncnc32)cc1` under Potency: inconclusive: 29.1 µM [falling, single point]
Entry for `CCc1ccc(NC(=O)c2ccc3c(c2)c(C)c(C)n3Cc2ccccc2)cc1` under Potency: inconclusive: 9.2 µM [activator, partial curve]

(continued)

SMILES | Potency
CCCCOc1ccc(C2c3c(oc4ccccc4c3=O)C(=O)N2c2nc(C)c(C(=O)OCC)s2)cc1OC (centres undefined) | inactive
COc1cc(/C=C/C(=O)OCC(=O)N2c3ccccc3NC(=O)C2(C)C)cc(OC)c1OC | inconclusive: 4.11 µM [falling, partial curve, poor fit]
COc1ccc(Nc2nc(-c3cccnc3)nc3ccccc23)cn1 | inconclusive: 25.9 µM [falling, single point]
C=CCn1c(C)nc2c(sc3nc4c(cc32)COC(C)(C)C4)c1=O | inconclusive: 10.3 µM [activator, partial curve]
COc1cc(/C=N/Nc2nc3ccccc3[nH]2)ccc1O | inactive
Clc1ccc(-n2nnc(-c3cccnc3Cl)n2)cn1 | inconclusive: 13 µM [activator, partial curve]
CC(C)(C)OC(=O)N(CCc1ccccc1)Cc1ccc(OCc2cccc(NC(=O)C3CC3)c2)cc1 | inconclusive: 18.4 µM [falling, single point]
COc1ccc(C(=S)N2CCOCC2)cc1OC(=O)c1ccccc1 | inconclusive: 0.58 µM [activator, full curve, poor fit]
NS(=O)(=O)c1ccc(CNC(=S)Nc2ccc(Cl)c(Cl)c2)cc1 | inactive
COc1ccc(S(=O)(=O)N2CCN(Cc3ccc(OC)c(OC)c3)CC2)cc1 | inconclusive: 25.9 µM [falling, partial curve, poor fit]
CCOC(=O)c1cccc(Nc2cc(C)nc(C)n2)c1 | inactive
COCCCn1cc(C(=O)c2ccccc2OCC(=O)Nc2cccc(F)c2)cc(C#N)c1=O | inconclusive: 25.9 µM [activator, single point]
CC(=O)Oc1ccc(C(=O)Nc2cccc(C(=O)c3ccc(C)c(C)c3)c2)cc1 | inconclusive: 29.1 µM [falling, single point]
Cn1cc(/C=C(\NC(=O)c2ccccc2Cl)C(=O)NCCCN2CCOCC2)c2ccccc21 | inconclusive: 0.184 µM [falling, full curve, poor fit]
Cc1nnc2c3ccccc3nc(N3CCN(c4cccc(Cl)c4)CC3)n12 | inconclusive: 25.9 µM [falling, single point]
C#CCOCCOCCOCCNc1nc(N2CCN(C(=O)CCCCCCCCCCNC(=O)Cn3cc(CCCCCN)nn3)CC2)nc(N2CCN(C(=O)CCCCCCCCCCNC(=O)[C@@H]([C@H](C)O)n3cc(C)nn3)CC2)n1 | inconclusive: 29.1 µM [falling, single point]
c1ccc(CCn2c3ccccc3c3nnc(SCc4ccc5nonc5c4)nc32)cc1 | inconclusive: 16.4 µM [activator, partial curve]
COCCNc1nc(CSc2ccccc2)nc2sc(C)c(C)c12 | inactive
Cc1noc(Cn2c(=O)c3ccccc3n(CC(=O)Nc3ccccc3C(F)(F)F)c2=O)n1 | inconclusive: 2.59 µM [activator, full curve]
